We go through six substances from patent publication US9023957 (dated 2015).

This series can be described thus: general procedure: Fmoc solid-phase peptide synthesis; BMEA linker resin; Rink amide MBHA resin (0.65 mmol/g); Wang resin (0.44 mmol/g); PyBOP/DIEA; DIC/HOAt for first residue on BMEA resin.

Some results are limits rather than exact numbers.

LKSFA-CLKFA registered a step yield (coupling step) of 100%.
LKSFF-CLKFA: the step yield (coupling step) was 98.30%.
Same read-out and setting: the figure for LKSFG-CLKFA is 100%.
Still for that read-out and setting: the figure for LKSFS-CLKFA is 99%; for LKSFV-CLKFA it is “≦5.00%”.
LKSFG-MPA thioester displayed a step yield (late stage modification step) of more than 85%.
